These are yes or no findings as the source states them, for the method shown. For part of these data: In cells and extracts the contact can be indirect. Some results given as binding are weak or reduced against the parent protein; the word gives no strength. For part of these data: Sequences can lack the tags named with a protein.

Results on 2 molecules are retold here after patent US20080138847A1, “Bcl-2 family member and BH-3 only proteins for use in development of peptidomimetics” (priority 2004, published 2008).

In experiment [1] the target is T1, CED-9 (construct not stated) (Caenorhabditis elegans, UniProt P41958 1-251, limits assumed).
T1 construct: Also stands for the worm's own CED-9 in the in vivo rows
T1 sequence (looked up): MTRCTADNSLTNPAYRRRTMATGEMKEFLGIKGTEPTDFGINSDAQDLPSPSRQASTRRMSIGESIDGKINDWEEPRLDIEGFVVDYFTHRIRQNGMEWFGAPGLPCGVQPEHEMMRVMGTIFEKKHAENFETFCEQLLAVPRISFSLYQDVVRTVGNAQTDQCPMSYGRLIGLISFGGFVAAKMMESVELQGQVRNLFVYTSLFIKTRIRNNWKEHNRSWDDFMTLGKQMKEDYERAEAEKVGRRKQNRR
The experiment is described as follows: GST-mediated pull-down. From the text:
This example describes the biochemical and functional analysis of EGL-1/CED-9 interactions. To corroborate the structural analysis, mutations on the interface residues of EGL-1 were examined for their potential to weaken or disrupt its binding to CED-9. Various mutant EGL-1 fragments were purified as fusion proteins with glutathione S-transferase (GST) and their interactions with CED-9 were investigated using a GST-mediated pull-down assay. […] Strikingly, substitution of Gly55 by a negatively charged glutamate residue was not sufficient to abolish interaction with CED-9.

In experiment [2] the target is T1, CED-9 (construct not stated). Nature of the experiment: GST-mediated pull-down, as retold with the displacement assay.
Experiment [3] deals with T2, CED-9 (residues 68-237) (Caenorhabditis elegans) (UniProt P41958).
T2 sequence (looked up): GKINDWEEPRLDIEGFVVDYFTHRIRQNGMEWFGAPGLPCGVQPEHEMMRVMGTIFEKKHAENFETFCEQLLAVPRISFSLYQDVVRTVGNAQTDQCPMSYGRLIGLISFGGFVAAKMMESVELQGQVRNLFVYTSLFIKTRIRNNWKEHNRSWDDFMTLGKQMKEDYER
The experiment is described as follows: binding tests of CED-9 fragments with EGL-1.

B1: GST-EGL-1 fragment L58A (peptide, UniProt O61667 60-102, looked up, not shown: a dimerising Fc or GST)
chain: SEISSIGYEIGSKAAAMCDDFDAQMMSYSAHASDRSLFHRLLD
On to B1, for which the binding entry in experiment [1] and in experiment [2] was “binds” each time.

B2: EGL-1 (construct not stated) (protein, Caenorhabditis elegans, UniProt O61667 16-106, looked up)
chain: MSNVFDVQSSVFYNEKNMFYSSSQDFSSCEDSSQFADDSGFFDDSEISSIGYEIGSKLAAMCDDFDAQMMSYSAHASDRSLFHRLLDFFAF
Consider B2, for which the binding result in experiment [3] is on record as “binds”.
